Numbering of substitutions follows the chain as printed. Names and notes keep the numbering of the source. No constants are given. Whether binding was seen depends on the method and setting. Some results given as binding are weak or reduced against the parent protein; the word gives no strength.
T1: McdA (Maintenance of Carboxysome Distribution protein A) of Halothiobacillus neapolitanus (H. neapolitanus) (UniProt D0KZ82)
T1 sequence: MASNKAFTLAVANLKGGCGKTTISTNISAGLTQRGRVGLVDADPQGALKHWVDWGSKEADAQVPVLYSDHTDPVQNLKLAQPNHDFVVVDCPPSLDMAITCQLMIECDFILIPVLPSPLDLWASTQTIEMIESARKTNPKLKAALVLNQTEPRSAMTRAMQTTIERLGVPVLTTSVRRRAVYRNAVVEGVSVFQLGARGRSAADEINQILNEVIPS

B1: McdB (Maintenance of Carboxysome Distribution protein B) of Halothiobacillus neapolitanus, wildtype (protein, UniProt D0KZ81 1-96)
chain: MTNLEDKLSASIKTENKDTIAPASTPAKPAARSAAPETTKPASTGAKPATRTAAKKPVARATTTKPAVSKSSKPSADDIQVPAHDTSTHPRRVWPD
B2: McdB[K13A] (protein, UniProt D0KZ81 1-96)
chain: B1 chain with K13A
B3: McdB[K17A] (protein, UniProt D0KZ81 1-96)
chain: B1 chain with K17A
B4: 20-amino acid N-terminal peptide of McdB (peptide, UniProt D0KZ81 1-20)
chain: MTNLEDKLSASIKTENKDTI

What follows are binders tested against T1, McdA (Maintenance of Carboxysome Distribution protein A) of Halothiobacillus neapolitanus (H. neapolitanus) (assay: two-hybrid; bacterial two-hybrid (B2H) in E. coli BTH101; N-terminal T18 and T25 fusions (pUT18C, pKT25) in both pairwise combinations; LB X-gal plates with 0.5 mM IPTG at 30 °C and β-galactosidase activity in Miller Units).

Row | binding | Binder
1 | binds | B1
2 | binds | B2
3 | binds | B3
4 | binds | B4
